According to PubChem BioAssay AID493014 (National Center for Advancing Translational Sciences (NCATS), 2011):
The other results are listed elsewhere or left out. Shown are side measurements of this screen, not its main read-out; they come without a call. Compounds called inactive in the main read-out are mostly missing here. Words in brackets tell the shape of the fitted curve; partial curves, single points and poor fits give uncertain potencies.

Experiment: qHTS Assay to Find Inhibitors of Chronic Active B-Cell Receptor Signaling
Conditions: ABC-DLBCL IkBa-CBG/CBR reporter, luminescence ratio (green luciferase fused to IkBa over red control in TMD8 lymphoma cells), 4 h
Method in brief: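 Cell line TMD8 (human ABC DLBCL), stably expressing tet-inducible CBG68-IkBa fusion and CBR; IMDM/0.5% FBS; cpd up to 46 uM; dox induction, 4 h, 37C/5% CO2; dual luminescence; green/red ratio; MG132 control.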

[1] = measured here: CBR red luminescence, cell number
[2] = measured here: IkBa-CBG green luminescence

Structure (SMILES) | AC50 [1] | AC50 [2]
COc1cccc(/C=C/C(=O)Nc2ccc3c(c2)OCCO3)c1OC | 10 µM [falling, partial curve] | 
Cc1cccc2c1cnn2C(=O)CCC(=O)NCC(C)c1ccccc1 (stereo not drawn) | 31.6 µM [rising, partial curve, poor fit] | 
Cc1ccc(C(=O)N2CCN(c3ccc(C(F)(F)F)cn3)CC2)c(C)c1 | 23.1 µM [rising, single point] | 
COCC(C)N=C1NN=C(c2cccs2)C(CC(=O)O)S1 (stereo not drawn) | 35.5 µM [rising, single point] | 
Cc1ccccc1N=CC1=C(O)c2ccccc2C1=O | 7.94 µM [falling, partial curve, poor fit] | 
CCOC(=O)NC(=O)CSc1ccc2ccccc2n1 | 22.4 µM [falling, single point] | 
O=C(O)c1cccc(N2CCCCS2(=O)=O)c1 | 13 µM [falling, partial curve, poor fit] | 
CCOC(=O)c1ccc(NC(=O)COc2ccc(CNC3CCCCC3)cc2OC)cc1 | 12.6 µM [falling, single point] | 
COc1ccc(CC(=O)N/N=C(\C)CC(=O)Nc2cccc(F)c2)cc1 | 20 µM [falling, single point] | 
O=C(CNS(=O)(=O)/C=C/c1ccccc1)OC1CCOC1=O (stereo not drawn) | 35.5 µM [rising, partial curve, poor fit] | 
CCc1ccc(NC(=O)c2cnn(-c3ccccc3)c2C2CCNCC2)cc1 | 14.1 µM [falling, partial curve, poor fit] | 20 µM [falling, partial curve, poor fit]
NC(=O)c1ccc(NC(=O)COC(=O)c2ccc3c(c2)OCCO3)cc1 | 5.62 µM [rising, single point] | 
COc1ccccc1/C=C/C(=O)c1ccc(Cl)cc1 | 11.2 µM [falling, partial curve, poor fit] | 
COc1cccc(-c2c(NC(C)=O)n(C)c3ccccc3c2=O)c1 | 0.631 µM [rising, full curve, poor fit] | 
O=C(CSc1nc(-c2ccccc2)cs1)Nc1nccs1 | 9.2 µM [rising, partial curve, poor fit] | 
C/C(=C\c1ccco1)C1C(C#N)=C(N)OC2=C1C(=O)CC(C)(C)C2 (stereo not drawn) | 25.9 µM [falling, single point] | 
CCCCn1c(NC(=S)Nc2ccccc2)nc2ccccc21 | 4.61 µM [rising, full curve] | 
Cc1oc(-c2cccc3ccccc23)nc1CN1CCN(c2ncnc3ccccc23)CC1 | 22.4 µM [falling, single point] | 
Cc1nc2nc(Cc3ccccc3)[nH]n2c(=O)c1Cc1ccccc1 | 3.26 µM [rising, partial curve, poor fit] | 
COc1ccc(C2=NN(c3ccc(C=O)cc3)C(c3ccccc3)C2)cc1 (stereo not drawn) | 1.12 µM [rising, partial curve, poor fit] | 
CN(C)CCN(Cc1ccco1)C(=O)c1oc2ccccc2c1NC(=O)COc1ccccc1 | 20 µM [falling, single point] | 

Retrieved one by one from the entries so far (three):
Structure (SMILES) | AC50 [1] | AC50 [2]
COc1ccc(CC(=O)N/N=C(\C)CC(=O)Nc2cccc(F)c2)cc1 | 20 µM [falling, single point] | 
CCCCn1c(NC(=S)Nc2ccccc2)nc2ccccc21 | 4.61 µM [rising, full curve] | 
Cc1ccccc1N=CC1=C(O)c2ccccc2C1=O | 7.94 µM [falling, partial curve, poor fit] | 

Next records follow:

Structure (SMILES) | AC50 [1] | AC50 [2]
Cc1ccc(S(=O)(=O)NCCN2CCOCC2)cc1 | 7.31 µM [rising, single point] | 
COc1ccc(NC(C)C(=O)N/N=C/c2ccccc2OCc2cccc(Br)c2)cc1 (stereo not drawn) | 3.26 µM [rising, partial curve, poor fit] | 
COc1cccc(/C=N/NC(=O)c2cc3c(OC)cccc3[nH]2)c1O | 0.366 µM [falling, full curve] | 
Fc1ccc(CO/N=C2\CCCc3nonc32)cc1 | 5.01 µM [rising, partial curve, poor fit] | 
Cc1ccc(C(=O)N2C(CC(=O)Nc3ccc(Cl)cc3)C(=O)NC3CCCCC32)cc1 (stereo not drawn) |  | 17.8 µM [falling, partial curve, poor fit]
Oc1cccc2ccc(/C=C/c3ccccc3Cl)nc12 | 0.316 µM [rising, full curve, poor fit] | 
CCCSc1nsc(NC(=O)Nc2ccc(F)cc2F)n1 | 3.98 µM [falling, full curve] | 
Cc1ccc(N(C(=O)c2ccc(Br)o2)C2C=CS(=O)(=O)C2)cc1 (stereo not drawn) | 9.2 µM [falling, single point] | 
CC(=O)Nc1ccc(Nc2nnc(-c3ccc(C)c(S(=O)(=O)NCC4CCCO4)c3)c3ccccc23)cc1 (stereo not drawn) | 14.1 µM [falling, partial curve] | 
Cc1cc(C2C(C#N)=C(N)Oc3n[nH]c(C)c32)c(C)s1 (stereo not drawn) | 1 µM [falling, full curve, poor fit] | 
Cc1ccc(C)c2c1cc(C)c1nnc(SCc3ccccn3)n12 | 2.06 µM [rising, full curve, poor fit] | 
COc1cccc2cc(C(=O)NCc3ccccn3)c(=O)oc12 | 1.84 µM [falling, partial curve, poor fit] | 
Clc1ccc(CN=C(Nc2ccccc2)NC2CCCCC2)cc1 | 11.2 µM [falling, partial curve, poor fit] | 
c1ccc2nc3[nH]cnc3nc2c1 | 3.16 µM [falling, full curve] | 
COc1ccc(C(=O)COC(=O)c2cncc(Br)c2)cc1 | 23.1 µM [falling, partial curve, poor fit] | 
CCOc1ccccc1N(CC(=O)N1CCOCC1)S(=O)(=O)c1ccc(SC)cc1 | 29.1 µM [rising, single point] | 
O=C(N/N=C/c1cccc(O)c1)c1cc(-c2ccc3c(c2)OCO3)n[nH]1 | 8.2 µM [falling, partial curve] | 
Cc1cc(-c2nnc3n2CCCCC3)c(C)n1-c1ccccc1 | 2 µM [rising, partial curve, poor fit] | 
CCCCNc1nc2ccccc2[nH]1 | 8.2 µM [rising, partial curve, poor fit] | 
COc1ccc(CNC(=O)c2[nH]c(C)c(C(C)=O)c2C)cc1 | 0.1 µM [rising, full curve, poor fit] | 
CN(C)CC/C=C1\c2ccccc2CSc2ccccc21 | 29.1 µM [falling, single point] | 
